Experimental data: publication PMC7997661
Results are given in words; binding and its absence hold for the method and conditions named. In cells and extracts the contact can be indirect. Some results given as binding are weak or reduced against the parent protein; the word gives no strength.

Biological target: GRB2 (human (endogenous in HUVEC)), P62993
Assay: co-IP; endogenous GRB2 immunoprecipitated with anti-Grb2 antibody (20 µg/ml) and Protein G Sepharose from lysates of HUVECs transduced with Ad-shScr or Ad-shLrrc8a, serum starved, with or without insulin; lysis buffer 150 mM NaCl, 20 mM HEPES, 1% NP-40, 5 mM EDTA, pH 7.5; overnight at 4°C; washed three times with RIPA buffer; immunoblot
Settings: remark: other sources report otherwise

binding: binds
B1: caveolin-1 (Cav1), Q03135 1-178 (protein)
chain: MSGGKYVDSEGHLYTVPIREQGNIYKPNNKAMADELSEKQVYDAHTKEIDLVNRDPKHLNDDVVKIDFEDVIAEPEGTHSFDGIWKASFTTFTVTKYWFYRLLSALFGIPMALIWGIYFAILSFLHIWAVVPCIKSFLIEIQCISRVYSIYVHTVCDPLFEAVGKIFSNVRINLQKEI
